Measurements reported in PubChem BioAssay AID1259308 (NCATS, 2017).

Purpose: 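Genes whose loss raises luciferase production in HEK293 cells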 (primary screen)
System: human HEK293 embryonic kidney cells stably expressing firefly luciferase (HEK-CMV-Luc2-Hygro)
Reagents: single siRNA against human genes, 0.8 pmol siRNA per well
Duration: 72 h
Measurement: 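Luciferase light (ONE-Glo) measured on one replicate plate set and viability (CellTiter-Glo) on the other, scaled to a negative control siRNA, with robust z-scores and luciferase per cell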
Scale: total luciferase, z-score: higher = more reporter protein produced
Active means: 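Active when the median/MAD z-score for overall luciferase is greater than 3; a gene was taken forward for validation with new siRNAs if at least two of its three siRNAs passed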
Calls: active = raised luciferase; inactive = no rise
Shown is an unselected part of about 59,000 reagents. About 1,510 of them (2.6%) were called active. 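Calls use total luciferase alone and ignore viability, so some active siRNAs may act by altering cell number.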 Reagents against one gene are numbered here. Further read-outs or replicates are left out here.

SLC10A4 #1 gave total luciferase, z-score -1.51; inactive.
Against SLC10A4 #2, the entry reads total luciferase, z-score 0.211; inactive.
After knock-down of SLC10A4 #3 the results were total luciferase, z-score 1.35; inactive.
ZEB2 #1 scored total luciferase, z-score 1.07; inactive.
Against ZEB2 #2, the values are total luciferase, z-score -0.401; inactive.
Silencing of ZEB2 #3 gave: total luciferase, z-score -0.241; inactive.
With knock-down of PROM1 #1, the record shows total luciferase, z-score 2.19; inactive.
Silencing of PROM1 #2 gave: total luciferase, z-score 2.68; inactive.
Against PROM1 #3, the values are total luciferase, z-score 0.574; inactive.
Knock-down of NDUFA1 #1 came out at: total luciferase, z-score 0.074; inactive.
NDUFA1 #2 showed total luciferase, z-score -0.77; inactive.
Depletion of NDUFA1 #3 gave: total luciferase, z-score 0.338; inactive.

Part of the list above, reformatted.
SLC10A4 #1
- total luciferase, z-score: -1.51
- Call: inactive

SLC10A4 #2
- total luciferase, z-score: 0.211
- Call: inactive

Further reagents follow.
PIGK #1 gave total luciferase, z-score 1.05; inactive.
After knock-down of PIGK #2, the record shows total luciferase, z-score -1.29; inactive.
With knock-down of PIGK #3, the screen gave total luciferase, z-score -0.0542; inactive.
With knock-down of YPEL1 #1, the record shows total luciferase, z-score -1.01; inactive.
YPEL1 #2 gave total luciferase, z-score 2.84; inactive.
For YPEL1 #3, the values are total luciferase, z-score -2.15; inactive.
Against BCAS4 #1, the entry reads total luciferase, z-score -0.784; inactive.
For BCAS4 #2, the entry reads total luciferase, z-score 0.0833; inactive.
Depletion of BCAS4 #3 came out at: total luciferase, z-score -0.94; inactive.
